Source: paper PMC13265731, “In vitro reconstitution defines the mechanistic basis of HSET motor activity regulation by IntraFlagellar Transport proteins” (Communications Biology, 2026)
Results are given in words; binding and its absence hold for the method and conditions named. Some binding calls cover weakened binding; strength is not graded here. Where a sequence is shown, tags or fusion partners need not be part of it.

Target: T1, GFP-HSET (full-length N-terminal hexa-histidine-tagged GFP-HSET) (human) (UniProt Q9BW19)
T1 sequence: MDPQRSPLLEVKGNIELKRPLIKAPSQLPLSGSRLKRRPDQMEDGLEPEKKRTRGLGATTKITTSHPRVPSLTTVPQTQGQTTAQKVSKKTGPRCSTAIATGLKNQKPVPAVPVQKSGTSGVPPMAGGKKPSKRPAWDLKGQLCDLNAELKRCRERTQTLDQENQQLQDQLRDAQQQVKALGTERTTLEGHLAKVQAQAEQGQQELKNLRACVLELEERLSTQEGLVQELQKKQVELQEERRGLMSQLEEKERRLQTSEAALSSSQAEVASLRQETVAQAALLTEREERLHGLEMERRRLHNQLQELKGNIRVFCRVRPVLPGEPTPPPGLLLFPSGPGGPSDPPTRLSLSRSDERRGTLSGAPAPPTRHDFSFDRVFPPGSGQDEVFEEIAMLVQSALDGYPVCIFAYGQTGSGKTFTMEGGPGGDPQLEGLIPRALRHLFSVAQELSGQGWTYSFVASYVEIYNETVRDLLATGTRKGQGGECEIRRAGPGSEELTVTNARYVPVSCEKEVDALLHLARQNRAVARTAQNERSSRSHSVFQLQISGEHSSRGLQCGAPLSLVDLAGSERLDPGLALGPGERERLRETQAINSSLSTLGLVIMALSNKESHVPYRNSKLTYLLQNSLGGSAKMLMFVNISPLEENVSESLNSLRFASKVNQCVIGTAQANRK
Assay: pull-down; 4 µg GFP-HSET (or GFP) on 10 µl GFP-trap beads; IFT proteins 0.25 µM in 20 mM Hepes pH 7.2, 150 mM NaCl, 2 mM MgCl2, 1 mM DTT, 2 h at RT; 4 washes; IFT proteins and SNAP seen by their SNAP-surface 647 label; both purified

binding: binds weakly
B1: SNAP-IFT46 (protein, UniProt Q9NQC8 1-304)
chain: MADNSSDECEEENNKEKKKTSQLTPQRGFSENEDDDDDDDDSSETDSDSDDDDEEHGAPLEGAYDPADYEHLPVSAEIKELFQYISRYTPQLIDLDHKLKPFIPDFIPAVGDIDAFLKVPRPDGKPDNLGLLVLDEPSTKQSDPTVLSLWLTENSKQHNITQHMKVKSLEDAEKNPKAIDTWIESISELHRSKPPATVHYTRPMPDIDTLMQEWSPEFEELLGKVSLPTAEIDCSLAEYIDMICAILDIPVYKSRIQSLHLLFSLYSEFKNSQHFKALAEGKKAFTPSSNSTSQAGDMETLTFS
modifications: SNAP-Surface Alexa Fluor 647 on the SNAP tag
